Results as given in patent US20180280393A1, “METHODS AND COMPOSITIONS FOR TREATMENT OF METASTATIC AND REFRACTORY CANCERS AND TUMORS” (The Wistar Institute of Anatomy and Biology, priority 2015, published 2018).
At least one compound was matched to its structure with a doubt left.

Tested on: MEK
Assay: Western blot of MEK signaling in Brpkp110 cells
Type: cell-based, mouse
Settings: 8 nM or 200 nM

CC(=O)Nc1cccc(-n2c(=O)n(C3CC3)c(=O)c3c(Nc4ccc(I)cc4F)n(C)c(=O)c(C)c32)c1 [trametinib]
signaling through MEK in Brpkp110 cells: can be inhibited
